Data taken from PMC11667807.
These are yes or no findings as the source states them, for the method shown. In cells and extracts the contact can be indirect. Some binding calls cover weakened binding; strength is not graded here. Where a sequence is shown, tags or fusion partners need not be part of it.

Protein sequences, listed by entry. Tags and fused reporters are not part of them.
UniProt Q15388: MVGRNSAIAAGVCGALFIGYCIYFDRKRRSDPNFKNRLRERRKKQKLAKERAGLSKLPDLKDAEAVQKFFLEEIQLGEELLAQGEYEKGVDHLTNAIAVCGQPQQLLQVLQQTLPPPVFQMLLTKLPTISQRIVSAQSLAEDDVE

T1: ANT3-Flag (human) (UniProt P12236)
T1 sequence: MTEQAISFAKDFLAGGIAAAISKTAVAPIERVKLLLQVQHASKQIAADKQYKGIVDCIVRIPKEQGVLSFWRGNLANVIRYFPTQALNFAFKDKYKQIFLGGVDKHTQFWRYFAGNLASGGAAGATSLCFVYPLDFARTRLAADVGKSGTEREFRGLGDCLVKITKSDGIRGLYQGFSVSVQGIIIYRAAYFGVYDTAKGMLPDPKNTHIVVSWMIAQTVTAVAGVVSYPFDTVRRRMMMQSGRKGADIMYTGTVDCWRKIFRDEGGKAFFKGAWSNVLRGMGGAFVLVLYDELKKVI


Target: T1, ANT3-Flag (human)
Experiment: co-IP; HEK293T cells transfected with ANT3-Flag, Timm10-HA / Timm22-HA / Tomm20-HA, or both; lysates immunoprecipitated with anti-Flag; immunoblot with anti-HA and anti-Flag; lysis in NETN (100 mM NaCl, 20 mM Tris-HCl, 0.5 mM EDTA, 0.5% NP40), protein A/G beads, 4°C overnight

Molecule	binding
Tomm20-HA (from UniProt Q15388 1-145)	binds
Timm22-HA (protein, UniProt Q9Y584 1-194) MAAAAPNAGGSAPETAGSAEAPLQYSLLLQYLVGDKRQPRLLEPGSLGGIPSPAKSEEQKMIEKAMESCAFKAALACVGGFVLGGAFGVFTAGIDTNVGFDPKDPYRTPTAKEVLKDMGQRGMSYAKNFAIVGAMFSCTECLIESYRGTSDWKNSVISGCITGGAIGFRAGLKAGAIGCGGFAAFSAAIDYYLR	binds
